We go through one molecule from PMC2843633.

Results are given in words; binding and its absence hold for the method and conditions named. Sequences can lack the tags named with a protein.

The target in this assay is 5′Nuc/SUMO fusion protein (Glossina morsitans morsitans 5′nucleotidase-related protein, recombinant, refolded) (Glossina morsitans morsitans) (UniProt Q95P65). Put plainly: SEC; Superdex 200 gel filtration of refolded, concentrated 5′Nuc/SUMO in 1 mM piperazin pH 9.5, 100 mM NaCl; monomer separated from aggregates and impurities; both purified. (In gel filtration, larger molecules generally elute earlier.)

B1: 5′Nuc/SUMO fusion protein (Glossina morsitans morsitans 5′nucleotidase-related protein, recombinant, refolded) (enzyme, UniProt Q95P65 26-555)
chain: DDLYPLTIMHTNDFHARFEETNVKGNPCKSGEKCIGGLARVLHTIKKIIKEQEKKNIESLYINAGDNFQGTIWYNIGRWNVTSELMNIQPPDVMVLGNHEFDHGIDGLLPFLNNMDKTEIVVANMDARDEPQVAKKIKPFTIIKKKYRNIGVIGVVVEEVPDLANTGKLKFRNESEAILEAARNLKKEDPSVNIIIVVSHVGFDVDKIIAERTGSEVDIIVGGHSHTVLYTGTPPGPEKPEDNYPYVYNHPSGNKVLVVQAVCHAKYVGNLTVFFDKKGKVVTYEGAPIYMDTKVEQDKDVLEAMKPWRKLIDEKTKLVVGRTNVDLPRDICRSEECALGNLYTDSMIYAFGGKENCKSGSTWTTAPIAFVHAGAMRSSLHQGDILYSDALLLSPFTNMVVAYDLPGAQLKAALEFSAAPKNEDEKRRFLQMSGLKVTYNMSRAANNRIVDLKVRTNVCPYDQYENLDEKKTYRVVSPSFLQGGGDGFKMLRDYAKNIQNQKIDLDALVDYLKKFSPLAPKAEGRITIIH
With B1, the binding entry is on record as “no binding”.
